Measured data: PubChem BioAssay AID1259308 (NCATS, 2017)
Shown is a random part of about 59,000 reagents tested. About 1,510 of all reagents (2.6%) were called active. 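Calls use total luciferase alone and ignore viability, so some active siRNAs may act by altering cell number.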 Unmarked entries are inactive.

- Test: 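Candidate targets for better recombinant protein yield in mammalian cells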 (primary screen)
- Cell system: human HEK293 embryonic kidney cells stably expressing firefly luciferase (HEK-CMV-Luc2-Hygro)
- Reagent: single siRNA against human genes, 0.8 pmol siRNA per well
- Duration: 72 h
- Detection: 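Luciferase light (ONE-Glo) measured on one replicate plate set and viability (CellTiter-Glo) on the other, scaled to a negative control siRNA, with robust z-scores and luciferase per cell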
- Reading the numbers: total luciferase, z-score and total luciferase, % of control: higher = more reporter protein produced; luciferase per cell, z-score: higher = more reporter output per viable cell; viable cells, % of control: higher = more viable cells
- Call rule: 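Active when the median/MAD z-score for overall luciferase is greater than 3; a gene was taken forward for validation with new siRNAs if at least two of its three siRNAs passed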
- Calls: active = raised luciferase; inactive = no rise

| Target gene | PubChem SID | total luciferase, z-score | total luciferase, % of control | luciferase per cell, z-score | viable cells, % of control |
| --- | --- | --- | --- | --- | --- |
| CDRT4 | SID160763126 | 1.03 | 102 | 2.87 | 53.7 |
| CDRT4 | SID160763127 | 1.11 | 104 | 1.41 | 80.2 |
| CDRT4 | SID160763128 | -0.403 | 73.9 | -0.668 | 98.4 |
| H4C7 | SID160719919 | 1.84 | 118 | 2.14 | 75.3 |
| H4C7 | SID160719922 | 0.832 | 98.4 | 1.86 | 67.4 |
| H4C7 | SID160735052 | 0.756 | 96.9 | 0.434 | 96.6 |
| RNASE11 | SID160755993 | 1.64 | 114 | 0.794 | 104 |
| RNASE11 | SID160755994 | -0.247 | 77 | -0.46 | 97.1 |
| RNASE11 | SID160755995 | 0.617 | 94.2 | -0.311 | 114 |
| YIF1B | SID160753721 | 0.0525 | 82.9 | 0.0879 | 90.6 |
| YIF1B | SID160753722 | 1.88 | 119 | 1.25 | 96 |
| YIF1B | SID160753723 | -0.816 | 65.7 | 0.704 | 61 |
| YIF1B | SID160768320 | 0.0495 | 82.9 | 0.00565 | 92.5 |
| YIF1B | SID160768321 | 3.36 (active) | 149 | 2.12 | 95 |
| YIF1B | SID160768322 | -0.179 | 78.3 | 0.0164 | 87.1 |
| RAB39A | SID160742076 | 0.716 | 96.1 | 0.509 | 93.9 |
| RAB39A | SID160742078 | -0.938 | 63.2 | -1.5 | 105 |
| RAB39A | SID160742079 | -0.671 | 68.5 | -0.558 | 88.7 |
| ZNF321P | SID160766831 | 0.331 | 88.5 | -0.0977 | 101 |
| ZNF321P | SID160766832 | -0.929 | 63.4 | -0.463 | 80.1 |
| ZNF321P | SID160766833 | 0.0936 | 83.7 | 0.83 | 75.2 |

Records listed so far whose gene name starts with Y or y:
| Target gene | PubChem SID | total luciferase, z-score | total luciferase, % of control | luciferase per cell, z-score | viable cells, % of control |
| --- | --- | --- | --- | --- | --- |
| YIF1B | SID160753721 | 0.0525 | 82.9 | 0.0879 | 90.6 |
| YIF1B | SID160753722 | 1.88 | 119 | 1.25 | 96 |
| YIF1B | SID160753723 | -0.816 | 65.7 | 0.704 | 61 |
| YIF1B | SID160768320 | 0.0495 | 82.9 | 0.00565 | 92.5 |
| YIF1B | SID160768321 | 3.36 (active) | 149 | 2.12 | 95 |
| YIF1B | SID160768322 | -0.179 | 78.3 | 0.0164 | 87.1 |

The results go on:
| Target gene | PubChem SID | total luciferase, z-score | total luciferase, % of control | luciferase per cell, z-score | viable cells, % of control |
| --- | --- | --- | --- | --- | --- |
| LGI2 | SID160743214 | 1.44 | 110 | 1.02 | 94.4 |
| LGI2 | SID160743215 | -0.0398 | 81.1 | 0.00685 | 90.5 |
| LGI2 | SID160743216 | -0.113 | 79.6 | -0.718 | 108 |
| SNX13 | SID160735587 | -0.324 | 75.4 | -0.403 | 93.7 |
| SNX13 | SID160735588 | -0.618 | 69.6 | -0.67 | 92.8 |
| SNX13 | SID160735589 | 0.266 | 87.2 | -0.017 | 97.8 |
| DEPDC1 | SID160743965 | 1.36 | 109 | 2.34 | 65.7 |
| DEPDC1 | SID160743966 | 0.37 | 89.3 | 0.705 | 82.8 |
| DEPDC1 | SID160743967 | -1.92 | 43.8 | -0.347 | 53.6 |
| OR9G4 | SID160762803 | -0.538 | 71.2 | -0.205 | 84 |
| OR9G4 | SID160762804 | -2.35 | 35.2 | -0.827 | 48.9 |
| OR9G4 | SID160762805 | 0.226 | 86.4 | -0.0299 | 97.3 |
| OR5AN1 | SID160766437 | -0.0819 | 80.3 | 0.224 | 84.6 |
| OR5AN1 | SID160766439 | -0.453 | 72.9 | -0.166 | 85.1 |
| OR5AN1 | SID160766440 | -2.55 | 31.1 | -2.57 | 68.5 |
| NEK6 | SID160729212 | 0.565 | 93.1 | 0.622 | 88.3 |
| NEK6 | SID160729213 | 0.223 | 86.3 | -0.146 | 100 |
| NEK6 | SID160729214 | -1.04 | 61.2 | -0.731 | 82.9 |
